Here are results for one molecule from publication PMC10291184.

By UniProt entry, the sequences of proteins in these tests, tags left out.
UniProt P25963: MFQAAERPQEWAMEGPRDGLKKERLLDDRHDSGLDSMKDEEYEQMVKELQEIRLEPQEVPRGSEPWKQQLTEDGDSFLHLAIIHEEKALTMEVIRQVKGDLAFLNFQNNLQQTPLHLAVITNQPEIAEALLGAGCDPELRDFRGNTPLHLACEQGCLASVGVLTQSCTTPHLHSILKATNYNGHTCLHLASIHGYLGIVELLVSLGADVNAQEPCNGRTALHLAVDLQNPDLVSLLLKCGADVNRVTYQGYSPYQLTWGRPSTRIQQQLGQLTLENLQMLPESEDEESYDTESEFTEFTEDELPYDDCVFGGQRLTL

The target in the assay is IκBα (human (endogenous in MCF-7 and BT-549)) (UniProt P25963). Briefly: co-IP; endogenous proteins in MCF-7 and BT-549 cell lysates (CST lysis buffer: 20 mM Tris-HCl pH 7.5, 150 mM NaCl, 1% Triton X-100); indicated antibodies overnight at 4°C, protein A/G agarose beads, washed with NETN buffer; Western blotting. Background: A western blot detects proteins with antibodies after separation by electrophoresis.

These are yes or no findings as the source states them, for the method shown. In cells and extracts the contact can be indirect. Some binding calls cover weakened binding; strength is not graded here.

B1: hexokinase 2 (HK2) (enzyme, UniProt P52789 1-917)
chain: MIASHLLAYFFTELNHDQVQKVDQYLYHMRLSDETLLEISKRFRKEMEKGLGATTHPTAAVKMLPTFVRSTPDGTEHGEFLALDLGGTNFRVLWVKVTDNGLQKVEMENQIYAIPEDIMRGSGTQLFDHIAECLANFMDKLQIKDKKLPLGFTFSFPCHQTKLDESFLVSWTKGFKSSGVEGRDVVALIRKAIQRRGDFDIDIVAVVNDTVGTMMTCGYDDHNCEIGLIVGTGSNACYMEEMRHIDMVEGDEGRMCINMEWGAFGDDGSLNDIRTEFDQEIDMGSLNPGKQLFEKMISGMYMGELVRLILVKMAKEELLFGGKLSPELLNTGRFETKDISDIEGEKDGIRKAREVLMRLGLDPTQEDCVATHRICQIVSTRSASLCAATLAAVLQRIKENKGEERLRSTIGVDGSVYKKHPHFAKRLHKTVRRLVPGCDVRFLRSEDGSGKGAAMVTAVAYRLADQHRARQKTLEHLQLSHDQLLEVKRRMKVEMERGLSKETHASAPVKMLPTYVCATPDGTEKGDFLALDLGGTNFRVLLVRVRNGKWGGVEMHNKIYAIPQEVMHGTGDELFDHIVQCIADFLEYMGMKGVSLPLGFTFSFPCQQNSLDESILLKWTKGFKASGCEGEDVVTLLKEAIHRREEFDLDVVAVVNDTVGTMMTCGFEDPHCEVGLIVGTGSNACYMEEMRNVELVEGEEGRMCVNMEWGAFGDNGCLDDFRTEFDVAVDELSLNPGKQRFEKMISGMYLGEIVRNILIDFTKRGLLFRGRISERLKTRGIFETKFLSQIESDCLALLQVRAILQHLGLESTCDDSIIVKEVCTVVARRAAQLCGAGMAAVVDRIRENRGLDALKVTVGVDGTLYKLHPHFAKVMHETVKDLAPKCDVSFLQSEDGSGKGAALITAVACRIREAGQR
Regarding B1, the binding entry was “binds”.
